Experimental data from article PMC9995352.
These are yes or no findings as the source states them, for the method shown. Binding seen in cells or lysates may run through a third protein. Some binding calls cover weakened binding; strength is not graded here.

Protein sequences, listed by entry. Tags and fused reporters are not part of them.
UniProt Q02248: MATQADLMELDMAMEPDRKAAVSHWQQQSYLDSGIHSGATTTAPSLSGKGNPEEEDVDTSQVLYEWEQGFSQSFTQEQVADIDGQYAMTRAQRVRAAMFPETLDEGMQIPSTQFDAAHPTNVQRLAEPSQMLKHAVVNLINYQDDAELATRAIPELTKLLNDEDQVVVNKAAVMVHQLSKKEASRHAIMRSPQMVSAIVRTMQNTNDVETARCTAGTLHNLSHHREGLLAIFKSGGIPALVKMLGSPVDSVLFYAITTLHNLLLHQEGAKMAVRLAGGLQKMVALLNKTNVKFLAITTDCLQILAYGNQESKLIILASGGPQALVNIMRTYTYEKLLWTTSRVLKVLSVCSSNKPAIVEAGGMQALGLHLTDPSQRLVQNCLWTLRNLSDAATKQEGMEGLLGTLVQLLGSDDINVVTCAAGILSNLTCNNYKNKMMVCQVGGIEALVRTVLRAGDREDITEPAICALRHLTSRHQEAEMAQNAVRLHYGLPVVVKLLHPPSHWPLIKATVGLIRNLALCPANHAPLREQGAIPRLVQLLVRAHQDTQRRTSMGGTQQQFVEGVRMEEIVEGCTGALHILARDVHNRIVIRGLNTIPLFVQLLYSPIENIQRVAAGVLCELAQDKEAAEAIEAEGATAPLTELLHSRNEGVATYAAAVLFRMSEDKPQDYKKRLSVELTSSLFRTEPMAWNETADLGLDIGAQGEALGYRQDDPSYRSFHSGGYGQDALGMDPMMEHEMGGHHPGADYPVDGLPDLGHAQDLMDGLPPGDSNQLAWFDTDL

T1: Vang-like 2 (Vangl2) planar cell polarity protein (mouse (endogenous in E9.5 embryonic neural tube)) (UniProt Q91ZD4)
T1 sequence: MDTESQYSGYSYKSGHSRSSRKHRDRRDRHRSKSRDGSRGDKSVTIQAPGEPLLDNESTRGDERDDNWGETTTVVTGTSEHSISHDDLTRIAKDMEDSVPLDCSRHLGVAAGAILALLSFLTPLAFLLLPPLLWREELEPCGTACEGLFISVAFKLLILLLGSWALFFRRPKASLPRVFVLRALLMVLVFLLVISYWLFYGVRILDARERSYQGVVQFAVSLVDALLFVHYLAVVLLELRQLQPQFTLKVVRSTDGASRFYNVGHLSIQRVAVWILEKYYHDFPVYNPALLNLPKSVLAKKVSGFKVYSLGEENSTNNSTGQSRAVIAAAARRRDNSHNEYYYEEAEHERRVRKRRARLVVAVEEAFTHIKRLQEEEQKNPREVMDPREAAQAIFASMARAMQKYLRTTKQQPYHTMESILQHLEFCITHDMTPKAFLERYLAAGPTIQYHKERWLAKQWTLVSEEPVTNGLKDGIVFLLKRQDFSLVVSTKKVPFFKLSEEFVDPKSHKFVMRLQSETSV

T2: Vang-like 2 (Vangl2) planar cell polarity protein (mouse (endogenous in E9.5 embryonic neural tube)), Q91ZD4
T2 chain: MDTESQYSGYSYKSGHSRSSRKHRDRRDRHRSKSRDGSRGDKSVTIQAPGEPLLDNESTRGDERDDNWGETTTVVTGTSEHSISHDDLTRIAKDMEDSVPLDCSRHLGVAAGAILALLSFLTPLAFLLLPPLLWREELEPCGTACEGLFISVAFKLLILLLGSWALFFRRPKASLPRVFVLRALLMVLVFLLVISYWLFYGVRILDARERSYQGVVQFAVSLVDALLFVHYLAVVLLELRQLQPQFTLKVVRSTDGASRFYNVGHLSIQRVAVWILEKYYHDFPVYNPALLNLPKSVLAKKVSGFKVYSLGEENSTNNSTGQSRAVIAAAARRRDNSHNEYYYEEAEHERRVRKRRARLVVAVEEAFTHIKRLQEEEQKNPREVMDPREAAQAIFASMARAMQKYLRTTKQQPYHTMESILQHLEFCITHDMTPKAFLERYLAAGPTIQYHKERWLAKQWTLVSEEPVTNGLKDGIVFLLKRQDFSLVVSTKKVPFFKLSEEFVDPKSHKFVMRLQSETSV


Tests used:
[1] = target: T1, Vang-like 2 (Vangl2) planar cell polarity protein (mouse (endogenous in E9.5 embryonic neural tube)); test: co-IP; immunoprecipitation with goat anti-Vangl2 antibodies (control: normal goat IgG) from lysates of neural tubes of E9.5 ICR mouse embryos; lysis in PBS with 1% NP-40 and 10 μg/ml aprotinin; western blot of input (1.7%) and IP (~50%)
[2] = target: T2, Vang-like 2 (Vangl2) planar cell …; test: as above; settings: remark: other sources report otherwise

Row | binding [1] | binding [2] | Molecule
1 | no binding |  | β-catenin (from UniProt Q02248 1-781)
2 |  | binds | N-cadherin (cadherin 2, CDH2), P15116 160-906 (protein) DWVIPPINLPENSRGPFPQELVRIRSDRDKNLSLRYSVTGPGADQPPTGIFIINPISGQLSVTKPLDRELIARFHLRAHAVDINGNQVENPIDIVINVIDMNDNRPEFLHQVWNGSVPEGSKPGTYVMTVTAIDADDPNALNGMLRYRILSQAPSTPSPNMFTINNETGDIITVAAGLDREKVQQYTLIIQATDMEGNPTYGLSNTATAVITVTDVNDNPPEFTAMTFYGEVPENRVDVIVANLTVTDKDQPHTPAWNAAYRISGGDPTGRFAILTDPNSNDGLVTVVKPIDFETNRMFVLTVAAENQVPLAKGIQHPPQSTATVSVTVIDVNENPYFAPNPKIIRQEEGLHAGTMLTTLTAQDPDRYMQQNIRYTKLSDPANWLKIDPVNGQITTIAVLDRESPNVKNNIYNATFLASDNGIPPMSGTGTLQIYLLDINDNAPQVLPQEAETCETPEPNSINITALDYDIDPNAGPFAFDLPLSPVTIKRNWTINRLNGDFAQLNLKIKFLEAGIYEVPIIITDSGNPPKSNISILRVKVCQCDSNGDCTDVDRIVGAGLGTGAIIAILLCIIILLILVLMFVVWMKRRDKERQAKQLLIDPEDDVRDNILKYDEEGGGEEDQDYDLSQLQQPDTVEPDAIKPVGIRRLDERPIHAEPQYPVRSAAPHPGDIGDFINEGLKAADNDPTAPPYDSLLVFDYEGSGSTAGSLSSLNSSSSGGDQDYDYLNDWGPRFKKLADMYGGGDD
